The text below walks through data of paper PMC10878142.

The chains behind the UniProt entries cited, without tags or fusion partners. Where a name states a change or a piece, a line headed by the entry shows the natural chain unless it says otherwise. A line that says so, or that is headed by a name, gives the form on record, which may keep a tag or linker.
UniProt P40763: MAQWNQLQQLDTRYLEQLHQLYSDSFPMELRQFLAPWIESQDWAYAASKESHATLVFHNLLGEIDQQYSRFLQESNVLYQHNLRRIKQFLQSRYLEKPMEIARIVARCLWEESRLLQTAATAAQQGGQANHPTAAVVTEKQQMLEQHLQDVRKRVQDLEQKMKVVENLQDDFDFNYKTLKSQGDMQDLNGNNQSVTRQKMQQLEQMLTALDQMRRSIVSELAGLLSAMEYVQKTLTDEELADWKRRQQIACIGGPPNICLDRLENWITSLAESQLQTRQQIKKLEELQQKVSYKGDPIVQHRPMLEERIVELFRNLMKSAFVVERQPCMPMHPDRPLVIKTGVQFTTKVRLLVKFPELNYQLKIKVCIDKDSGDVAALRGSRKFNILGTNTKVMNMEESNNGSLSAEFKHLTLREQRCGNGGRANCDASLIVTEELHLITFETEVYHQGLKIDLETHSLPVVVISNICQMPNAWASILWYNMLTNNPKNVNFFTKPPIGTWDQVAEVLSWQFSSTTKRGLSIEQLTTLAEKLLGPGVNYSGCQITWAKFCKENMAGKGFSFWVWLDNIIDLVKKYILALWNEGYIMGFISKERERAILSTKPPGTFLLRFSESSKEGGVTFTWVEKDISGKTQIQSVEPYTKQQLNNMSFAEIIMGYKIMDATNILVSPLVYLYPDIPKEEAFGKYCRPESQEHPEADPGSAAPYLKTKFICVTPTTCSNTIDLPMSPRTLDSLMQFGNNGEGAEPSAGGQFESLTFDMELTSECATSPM
standard CD44 (CD44s) (P16070-12, form named): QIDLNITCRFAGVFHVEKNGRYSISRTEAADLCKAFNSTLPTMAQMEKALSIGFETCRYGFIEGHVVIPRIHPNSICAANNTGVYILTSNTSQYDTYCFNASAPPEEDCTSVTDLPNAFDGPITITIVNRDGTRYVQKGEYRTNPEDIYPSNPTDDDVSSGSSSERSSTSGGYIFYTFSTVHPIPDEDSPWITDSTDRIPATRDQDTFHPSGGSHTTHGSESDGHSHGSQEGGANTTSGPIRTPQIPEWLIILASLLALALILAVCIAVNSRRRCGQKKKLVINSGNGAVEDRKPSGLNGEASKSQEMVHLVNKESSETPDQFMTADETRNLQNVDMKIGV

These are yes or no findings as the source states them, for the method shown. Binding seen in cells or lysates may run through a third protein. Some entries that bind do so weakly or less than the wild type.

This assay deals with STAT3 (human (endogenous in NCI-N87 / SGC-7901)) (UniProt P40763). Kind of assay: co-IP; Pierce Co-IP kit, antibody covalently coupled to amine-reactive resin; endogenous CD44s or STAT3 immunoprecipitated with anti-STAT3 or anti-CD44s antibody, Western blot with both antibodies; high TGF-β1 environment.

“standard CD44 (CD44s) (from UniProt P16070-12 21-361)”: the binding entry is given as “binds”.
